Results reported in patent US20030144208A1.
These are yes or no findings as the source states them, for the method shown. Some results given as binding are weak or reduced against the parent protein; the word gives no strength.

Amino acid sequences for entries named in this document (tags omitted). A change or cut given only in a name is not applied to a line headed by its entry. Residues count along the entry.
UniProt P02453: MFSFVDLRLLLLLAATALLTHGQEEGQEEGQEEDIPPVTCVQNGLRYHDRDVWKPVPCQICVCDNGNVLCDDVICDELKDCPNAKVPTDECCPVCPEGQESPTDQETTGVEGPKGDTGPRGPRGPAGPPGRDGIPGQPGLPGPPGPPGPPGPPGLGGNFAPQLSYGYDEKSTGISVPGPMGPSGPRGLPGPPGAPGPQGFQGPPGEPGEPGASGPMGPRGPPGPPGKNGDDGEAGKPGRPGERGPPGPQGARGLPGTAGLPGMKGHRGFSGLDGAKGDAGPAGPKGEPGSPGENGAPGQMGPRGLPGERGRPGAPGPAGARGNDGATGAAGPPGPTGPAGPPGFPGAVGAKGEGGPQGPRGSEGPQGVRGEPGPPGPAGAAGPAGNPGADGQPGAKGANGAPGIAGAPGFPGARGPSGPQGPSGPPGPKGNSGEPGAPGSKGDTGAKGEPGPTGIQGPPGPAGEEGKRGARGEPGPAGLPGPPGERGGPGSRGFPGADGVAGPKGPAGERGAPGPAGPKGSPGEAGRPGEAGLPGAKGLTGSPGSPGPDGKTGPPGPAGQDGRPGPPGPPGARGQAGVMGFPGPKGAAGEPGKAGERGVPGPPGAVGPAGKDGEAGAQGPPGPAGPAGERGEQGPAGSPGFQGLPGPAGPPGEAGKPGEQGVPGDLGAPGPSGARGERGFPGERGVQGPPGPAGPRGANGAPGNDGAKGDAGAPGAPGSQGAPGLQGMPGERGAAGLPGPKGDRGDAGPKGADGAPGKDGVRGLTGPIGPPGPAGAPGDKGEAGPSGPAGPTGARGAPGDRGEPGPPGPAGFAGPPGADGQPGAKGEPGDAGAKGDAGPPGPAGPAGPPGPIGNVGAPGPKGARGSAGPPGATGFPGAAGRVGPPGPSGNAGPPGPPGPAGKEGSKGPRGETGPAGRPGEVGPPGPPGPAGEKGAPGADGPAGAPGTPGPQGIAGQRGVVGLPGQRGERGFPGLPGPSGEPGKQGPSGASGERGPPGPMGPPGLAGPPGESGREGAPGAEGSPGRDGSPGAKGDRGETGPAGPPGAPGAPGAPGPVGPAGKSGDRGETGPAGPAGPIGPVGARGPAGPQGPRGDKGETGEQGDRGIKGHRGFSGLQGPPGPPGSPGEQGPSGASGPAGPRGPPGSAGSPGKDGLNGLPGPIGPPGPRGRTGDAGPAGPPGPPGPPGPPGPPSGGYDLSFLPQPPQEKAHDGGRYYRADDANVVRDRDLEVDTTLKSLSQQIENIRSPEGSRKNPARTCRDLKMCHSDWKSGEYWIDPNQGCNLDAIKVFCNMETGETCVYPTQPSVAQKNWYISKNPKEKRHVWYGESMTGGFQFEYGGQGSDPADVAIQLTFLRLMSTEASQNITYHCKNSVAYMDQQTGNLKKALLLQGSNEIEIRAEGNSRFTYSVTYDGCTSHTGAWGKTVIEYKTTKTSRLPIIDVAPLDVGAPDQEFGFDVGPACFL
UniProt P02465: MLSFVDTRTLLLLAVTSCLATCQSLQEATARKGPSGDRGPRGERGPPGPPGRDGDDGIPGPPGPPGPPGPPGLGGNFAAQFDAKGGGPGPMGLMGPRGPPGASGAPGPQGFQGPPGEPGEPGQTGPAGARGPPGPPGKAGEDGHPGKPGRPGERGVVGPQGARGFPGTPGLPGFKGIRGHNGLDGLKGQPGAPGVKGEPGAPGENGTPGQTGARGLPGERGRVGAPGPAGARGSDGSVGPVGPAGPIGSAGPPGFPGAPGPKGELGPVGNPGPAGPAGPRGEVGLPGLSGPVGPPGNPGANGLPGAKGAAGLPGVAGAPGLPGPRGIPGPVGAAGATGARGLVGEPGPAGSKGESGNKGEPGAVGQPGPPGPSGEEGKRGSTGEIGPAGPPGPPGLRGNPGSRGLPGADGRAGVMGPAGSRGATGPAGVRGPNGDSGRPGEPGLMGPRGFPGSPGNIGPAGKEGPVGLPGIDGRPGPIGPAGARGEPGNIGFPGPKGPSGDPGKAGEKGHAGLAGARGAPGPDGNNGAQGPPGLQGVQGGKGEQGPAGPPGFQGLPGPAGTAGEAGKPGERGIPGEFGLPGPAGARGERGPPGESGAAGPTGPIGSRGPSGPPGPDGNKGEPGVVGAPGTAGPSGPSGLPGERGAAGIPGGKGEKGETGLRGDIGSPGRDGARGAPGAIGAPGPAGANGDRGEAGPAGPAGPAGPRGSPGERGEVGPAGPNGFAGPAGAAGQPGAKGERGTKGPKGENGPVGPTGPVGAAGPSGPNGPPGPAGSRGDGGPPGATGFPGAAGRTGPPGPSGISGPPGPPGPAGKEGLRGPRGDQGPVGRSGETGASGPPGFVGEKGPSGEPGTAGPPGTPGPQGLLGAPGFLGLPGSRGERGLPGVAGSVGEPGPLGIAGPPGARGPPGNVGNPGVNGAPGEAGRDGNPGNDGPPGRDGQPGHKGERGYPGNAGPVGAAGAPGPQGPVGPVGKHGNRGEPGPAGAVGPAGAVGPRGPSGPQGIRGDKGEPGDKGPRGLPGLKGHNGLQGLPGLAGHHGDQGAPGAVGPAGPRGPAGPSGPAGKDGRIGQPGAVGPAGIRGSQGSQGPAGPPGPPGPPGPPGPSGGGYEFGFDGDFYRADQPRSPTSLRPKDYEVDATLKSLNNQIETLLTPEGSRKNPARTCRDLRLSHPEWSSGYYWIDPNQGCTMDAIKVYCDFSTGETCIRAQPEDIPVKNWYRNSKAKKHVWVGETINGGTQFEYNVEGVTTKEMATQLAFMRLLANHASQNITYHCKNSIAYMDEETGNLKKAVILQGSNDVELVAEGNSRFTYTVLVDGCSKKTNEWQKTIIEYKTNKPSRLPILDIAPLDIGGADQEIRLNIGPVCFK
UniProt P02458, residues 182-1241: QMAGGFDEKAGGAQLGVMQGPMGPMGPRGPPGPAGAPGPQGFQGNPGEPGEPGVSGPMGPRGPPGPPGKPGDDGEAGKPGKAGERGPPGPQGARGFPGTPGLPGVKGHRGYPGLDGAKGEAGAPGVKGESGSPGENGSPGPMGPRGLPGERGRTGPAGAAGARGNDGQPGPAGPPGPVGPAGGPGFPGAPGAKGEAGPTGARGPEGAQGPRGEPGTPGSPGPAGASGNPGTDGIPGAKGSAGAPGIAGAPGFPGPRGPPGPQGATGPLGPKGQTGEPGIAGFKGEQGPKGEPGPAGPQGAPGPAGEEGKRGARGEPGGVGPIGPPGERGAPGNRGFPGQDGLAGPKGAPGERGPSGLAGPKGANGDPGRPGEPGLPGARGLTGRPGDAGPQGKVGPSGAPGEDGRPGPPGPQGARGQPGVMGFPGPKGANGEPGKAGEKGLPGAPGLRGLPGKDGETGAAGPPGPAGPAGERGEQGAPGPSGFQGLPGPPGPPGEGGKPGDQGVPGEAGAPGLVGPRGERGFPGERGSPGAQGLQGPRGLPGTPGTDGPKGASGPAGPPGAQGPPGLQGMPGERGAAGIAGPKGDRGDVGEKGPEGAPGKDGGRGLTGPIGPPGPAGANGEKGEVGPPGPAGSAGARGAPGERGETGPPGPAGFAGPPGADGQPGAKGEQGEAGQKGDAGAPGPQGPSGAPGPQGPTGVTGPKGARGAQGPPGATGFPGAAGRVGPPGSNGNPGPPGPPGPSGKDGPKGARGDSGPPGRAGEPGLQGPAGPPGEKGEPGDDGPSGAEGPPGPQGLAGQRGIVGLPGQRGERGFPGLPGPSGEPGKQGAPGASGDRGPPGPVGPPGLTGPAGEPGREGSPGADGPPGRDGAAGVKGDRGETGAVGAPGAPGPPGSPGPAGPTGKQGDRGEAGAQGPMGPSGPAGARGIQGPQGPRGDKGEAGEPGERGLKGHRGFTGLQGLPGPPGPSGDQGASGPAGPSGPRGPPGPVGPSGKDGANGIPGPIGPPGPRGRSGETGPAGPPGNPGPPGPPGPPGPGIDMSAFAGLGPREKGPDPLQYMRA
UniProt P02461, residues 154-1221: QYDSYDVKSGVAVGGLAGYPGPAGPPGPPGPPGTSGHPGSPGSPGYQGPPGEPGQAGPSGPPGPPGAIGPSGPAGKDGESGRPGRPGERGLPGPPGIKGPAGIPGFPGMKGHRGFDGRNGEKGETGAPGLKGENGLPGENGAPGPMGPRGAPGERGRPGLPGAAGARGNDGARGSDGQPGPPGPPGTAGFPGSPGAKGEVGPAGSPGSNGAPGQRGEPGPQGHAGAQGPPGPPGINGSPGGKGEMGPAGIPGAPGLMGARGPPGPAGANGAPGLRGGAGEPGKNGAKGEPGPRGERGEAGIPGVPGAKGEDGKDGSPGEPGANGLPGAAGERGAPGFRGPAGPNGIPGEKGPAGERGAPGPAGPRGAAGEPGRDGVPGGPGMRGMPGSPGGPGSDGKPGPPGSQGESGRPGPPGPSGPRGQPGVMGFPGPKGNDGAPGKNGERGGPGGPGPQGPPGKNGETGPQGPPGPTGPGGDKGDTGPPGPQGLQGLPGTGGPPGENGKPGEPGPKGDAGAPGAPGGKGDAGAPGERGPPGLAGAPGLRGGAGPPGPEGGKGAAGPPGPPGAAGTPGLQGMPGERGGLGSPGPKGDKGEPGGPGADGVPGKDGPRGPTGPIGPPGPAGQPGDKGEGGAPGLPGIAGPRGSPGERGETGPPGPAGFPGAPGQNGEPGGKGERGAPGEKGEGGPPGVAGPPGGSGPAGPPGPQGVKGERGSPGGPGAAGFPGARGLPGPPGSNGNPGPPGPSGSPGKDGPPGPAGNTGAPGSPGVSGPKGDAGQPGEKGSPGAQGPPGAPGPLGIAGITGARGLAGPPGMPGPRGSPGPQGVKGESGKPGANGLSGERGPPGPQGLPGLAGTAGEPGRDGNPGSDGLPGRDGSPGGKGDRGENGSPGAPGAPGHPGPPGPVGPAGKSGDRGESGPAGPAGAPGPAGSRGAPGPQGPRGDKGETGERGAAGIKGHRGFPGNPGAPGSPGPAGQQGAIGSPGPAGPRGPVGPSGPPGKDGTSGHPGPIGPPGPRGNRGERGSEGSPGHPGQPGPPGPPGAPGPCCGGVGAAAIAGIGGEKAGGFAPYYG

Legend:
Assay in all cases: ELISA on plated matrix protein, 1.8 ug/ml zsig37-FITC, chemiluminescence on film
[1] = biological target: Bovine Collagen Type I (Becton Dickinson) (bovine) (UniProt P02453+P02465)
[2] = biological target: human collagen Type II (Chemicon International) (human) (UniProt P02458)
[3] = biological target: human collagen Type III (Chemicon International) (human) (UniProt P02461)

binding [1]: binds
binding [2]: binds
binding [3]: binds
B1: zsig37-FITC (ligand)
chain: LVLSRVPHVQGEQQEWEGTEELPSPPDHAERAEEQHEKYRPSQDQGLPASRCLRCCDPGTSMYPATAVPQINITILKGEKGDRGDRGLQGKYGKTGSAGARGHTGPKGQKGSMGAPGERCKSHYAAFSVGRKKPMHSNHYYQTVIFDTEFVNLYDHFNMFTGKFYCYVPGLYFFSLNVHTWNQKETYLHIMKNEEEVVILFAQVGDRSIMQSQSLMLELREQDQVWVRLYKGERENAIFSEELDTYITFSGYLVKHATEP
modifications: FITC label (sites not given)
